Measured values reported in article doi:10.1101/2021.03.08.433705.
No constants are given. Whether binding was seen depends on the method and setting. In cells and extracts the contact can be indirect. Some binding calls cover weakened binding; strength is not graded here.

Protein sequences, listed by entry. Tags and fused reporters are not part of them. Lines headed by an entry give the natural chain unless they say otherwise; changes in a name come on top. Residues count along the entry.
UniProt Q9BSM1: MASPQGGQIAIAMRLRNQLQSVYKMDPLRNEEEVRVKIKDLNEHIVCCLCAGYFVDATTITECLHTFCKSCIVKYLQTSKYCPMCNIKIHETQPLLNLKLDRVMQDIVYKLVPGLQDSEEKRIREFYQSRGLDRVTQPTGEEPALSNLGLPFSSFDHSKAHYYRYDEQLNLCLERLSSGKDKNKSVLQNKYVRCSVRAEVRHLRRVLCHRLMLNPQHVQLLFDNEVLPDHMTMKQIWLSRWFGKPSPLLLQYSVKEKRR
UniProt Q6W2J9: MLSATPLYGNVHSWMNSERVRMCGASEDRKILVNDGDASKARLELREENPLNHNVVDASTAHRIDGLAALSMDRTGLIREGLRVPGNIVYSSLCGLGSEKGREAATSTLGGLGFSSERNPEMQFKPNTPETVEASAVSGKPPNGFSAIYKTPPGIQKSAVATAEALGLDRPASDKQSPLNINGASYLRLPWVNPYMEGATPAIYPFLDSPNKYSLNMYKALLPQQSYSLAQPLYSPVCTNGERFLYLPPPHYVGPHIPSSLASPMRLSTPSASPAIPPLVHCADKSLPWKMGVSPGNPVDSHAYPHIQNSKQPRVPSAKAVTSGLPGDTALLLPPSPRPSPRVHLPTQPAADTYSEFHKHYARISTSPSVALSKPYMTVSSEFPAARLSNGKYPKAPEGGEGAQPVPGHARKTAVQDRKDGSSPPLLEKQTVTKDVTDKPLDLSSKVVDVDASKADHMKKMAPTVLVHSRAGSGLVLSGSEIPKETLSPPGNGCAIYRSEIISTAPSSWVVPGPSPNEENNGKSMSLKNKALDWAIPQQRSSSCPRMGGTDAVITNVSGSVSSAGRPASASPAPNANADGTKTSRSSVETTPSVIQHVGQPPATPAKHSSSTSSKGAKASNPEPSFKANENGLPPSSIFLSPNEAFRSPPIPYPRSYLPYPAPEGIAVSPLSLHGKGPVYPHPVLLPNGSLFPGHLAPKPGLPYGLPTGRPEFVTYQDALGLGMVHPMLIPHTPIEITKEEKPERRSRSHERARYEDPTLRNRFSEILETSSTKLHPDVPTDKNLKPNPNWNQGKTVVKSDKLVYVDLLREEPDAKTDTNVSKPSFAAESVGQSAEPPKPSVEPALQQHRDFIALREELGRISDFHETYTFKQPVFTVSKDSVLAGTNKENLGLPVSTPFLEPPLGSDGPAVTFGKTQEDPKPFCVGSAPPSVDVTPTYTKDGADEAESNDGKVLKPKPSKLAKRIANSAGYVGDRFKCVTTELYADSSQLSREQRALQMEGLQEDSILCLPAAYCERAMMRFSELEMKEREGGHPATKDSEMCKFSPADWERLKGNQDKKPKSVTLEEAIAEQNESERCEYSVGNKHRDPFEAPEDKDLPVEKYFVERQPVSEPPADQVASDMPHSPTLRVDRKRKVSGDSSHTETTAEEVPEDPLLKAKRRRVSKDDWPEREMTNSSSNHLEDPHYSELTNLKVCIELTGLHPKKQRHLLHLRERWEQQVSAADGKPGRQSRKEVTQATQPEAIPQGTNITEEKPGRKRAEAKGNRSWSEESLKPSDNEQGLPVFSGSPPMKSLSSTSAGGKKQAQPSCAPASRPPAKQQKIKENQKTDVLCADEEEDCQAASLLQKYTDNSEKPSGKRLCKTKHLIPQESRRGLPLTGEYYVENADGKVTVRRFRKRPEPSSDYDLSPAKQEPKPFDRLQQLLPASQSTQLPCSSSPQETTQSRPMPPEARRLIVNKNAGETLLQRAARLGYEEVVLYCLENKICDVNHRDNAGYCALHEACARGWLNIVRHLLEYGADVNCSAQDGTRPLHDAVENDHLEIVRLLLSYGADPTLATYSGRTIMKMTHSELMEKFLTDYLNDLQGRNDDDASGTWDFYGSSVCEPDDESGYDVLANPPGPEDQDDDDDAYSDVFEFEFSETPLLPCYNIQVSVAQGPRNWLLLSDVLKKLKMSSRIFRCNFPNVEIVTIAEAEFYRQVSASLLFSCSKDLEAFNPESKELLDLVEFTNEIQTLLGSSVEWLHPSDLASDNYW
BCOR HA-PUFD (1635-1755aa): residues 1635-1755 of Q6W2J9
UniProt Q93009: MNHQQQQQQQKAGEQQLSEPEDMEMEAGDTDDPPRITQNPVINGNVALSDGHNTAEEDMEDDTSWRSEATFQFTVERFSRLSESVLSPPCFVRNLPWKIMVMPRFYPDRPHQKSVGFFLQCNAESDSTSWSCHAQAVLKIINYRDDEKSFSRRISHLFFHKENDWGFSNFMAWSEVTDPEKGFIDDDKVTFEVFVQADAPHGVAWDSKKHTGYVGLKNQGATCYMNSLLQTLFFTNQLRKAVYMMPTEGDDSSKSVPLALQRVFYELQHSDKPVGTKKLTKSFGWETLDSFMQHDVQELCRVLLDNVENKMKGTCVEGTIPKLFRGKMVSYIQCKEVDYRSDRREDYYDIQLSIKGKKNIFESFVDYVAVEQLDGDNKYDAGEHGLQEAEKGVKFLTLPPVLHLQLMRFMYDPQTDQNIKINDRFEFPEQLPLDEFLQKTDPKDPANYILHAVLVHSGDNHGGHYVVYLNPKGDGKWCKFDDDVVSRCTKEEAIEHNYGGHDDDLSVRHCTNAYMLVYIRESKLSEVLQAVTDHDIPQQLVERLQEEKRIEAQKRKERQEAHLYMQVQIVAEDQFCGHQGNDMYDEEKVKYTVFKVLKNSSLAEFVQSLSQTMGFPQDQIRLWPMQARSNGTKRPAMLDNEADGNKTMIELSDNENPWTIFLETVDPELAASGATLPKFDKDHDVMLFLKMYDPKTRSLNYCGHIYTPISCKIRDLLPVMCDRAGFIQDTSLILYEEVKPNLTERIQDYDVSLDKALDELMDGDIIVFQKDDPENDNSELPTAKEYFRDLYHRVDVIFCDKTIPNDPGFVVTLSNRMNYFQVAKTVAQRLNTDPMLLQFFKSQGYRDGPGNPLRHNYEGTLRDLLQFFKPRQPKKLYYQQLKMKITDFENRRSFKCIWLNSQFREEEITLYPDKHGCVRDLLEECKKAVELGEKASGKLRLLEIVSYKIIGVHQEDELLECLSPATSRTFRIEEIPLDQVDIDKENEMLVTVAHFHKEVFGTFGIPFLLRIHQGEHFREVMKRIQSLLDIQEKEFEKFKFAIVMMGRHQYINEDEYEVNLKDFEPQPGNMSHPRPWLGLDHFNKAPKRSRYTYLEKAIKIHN

T1: KDM2B (endogenous) (human (endogenous in K562, MOLM14)) (UniProt Q8NHM5)
T1 sequence: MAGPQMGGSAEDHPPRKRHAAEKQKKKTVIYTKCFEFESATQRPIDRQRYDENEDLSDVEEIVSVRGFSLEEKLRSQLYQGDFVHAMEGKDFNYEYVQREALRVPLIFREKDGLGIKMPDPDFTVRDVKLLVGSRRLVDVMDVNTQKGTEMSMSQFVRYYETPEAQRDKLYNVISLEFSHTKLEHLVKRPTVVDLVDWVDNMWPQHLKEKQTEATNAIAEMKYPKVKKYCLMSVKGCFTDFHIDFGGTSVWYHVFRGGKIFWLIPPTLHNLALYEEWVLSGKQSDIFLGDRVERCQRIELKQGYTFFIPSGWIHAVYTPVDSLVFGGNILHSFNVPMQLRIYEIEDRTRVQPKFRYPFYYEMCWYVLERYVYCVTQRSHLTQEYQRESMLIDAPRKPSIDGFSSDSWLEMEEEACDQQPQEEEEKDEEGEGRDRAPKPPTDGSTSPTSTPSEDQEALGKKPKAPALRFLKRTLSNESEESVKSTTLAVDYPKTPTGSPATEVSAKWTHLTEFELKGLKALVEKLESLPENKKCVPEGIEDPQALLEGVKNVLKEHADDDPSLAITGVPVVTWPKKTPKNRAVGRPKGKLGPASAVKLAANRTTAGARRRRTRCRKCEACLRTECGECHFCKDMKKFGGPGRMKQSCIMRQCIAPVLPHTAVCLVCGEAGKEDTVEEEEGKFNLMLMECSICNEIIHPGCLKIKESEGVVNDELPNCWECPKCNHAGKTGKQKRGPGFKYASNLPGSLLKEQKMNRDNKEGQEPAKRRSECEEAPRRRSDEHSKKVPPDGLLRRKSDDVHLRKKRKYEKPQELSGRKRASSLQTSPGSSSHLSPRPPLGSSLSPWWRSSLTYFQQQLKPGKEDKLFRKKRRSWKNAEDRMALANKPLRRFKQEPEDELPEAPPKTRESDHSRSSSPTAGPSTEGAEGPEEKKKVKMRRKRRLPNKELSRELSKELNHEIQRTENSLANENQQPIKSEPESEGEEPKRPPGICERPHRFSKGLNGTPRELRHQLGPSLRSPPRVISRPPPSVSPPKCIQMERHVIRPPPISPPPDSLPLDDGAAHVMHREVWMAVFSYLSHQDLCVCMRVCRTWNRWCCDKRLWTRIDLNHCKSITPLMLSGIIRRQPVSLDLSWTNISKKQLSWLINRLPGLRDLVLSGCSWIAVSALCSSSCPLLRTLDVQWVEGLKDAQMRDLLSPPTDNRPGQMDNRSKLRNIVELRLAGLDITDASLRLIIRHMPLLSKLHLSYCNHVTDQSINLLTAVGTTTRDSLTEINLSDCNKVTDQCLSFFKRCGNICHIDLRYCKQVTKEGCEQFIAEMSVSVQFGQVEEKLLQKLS


Legend:
Assay in all cases: co-IP
[1] = molecular target: PCGF1 (endogenous) (human (endogenous in K562, MOLM14)) (UniProt Q9BSM1)
[2] = molecular target: T1, KDM2B (endogenous) (human (endogenous in K562, MOLM14))
[3] = molecular target: BCOR HA-CT (1462-1755aa) (human) (UniProt Q6W2J9)
[4] = molecular target: BCOR (endogenous wild type, K562) (human (endogenous in K562)) (UniProt Q6W2J9)
[5] = molecular target: BCOR HA-PUFD (1635-1755aa) (human) (UniProt Q6W2J9)

Molecule	binding [1]	binding [2]	binding [3]	binding [4]	binding [5]
BCOR (endogenous wild type, K562) (from UniProt Q6W2J9 1-1755)	binds	binds			
BCOR HA-CT (1462-1755aa) (from UniProt Q6W2J9 1462-1755) (domain or fragment)		binds			
PCGF1 (endogenous) (from UniProt Q9BSM1 1-259)			binds	binds	binds
USP7 (endogenous) (from UniProt Q93009 1-1102)				binds	
KDM2B (endogenous) (protein, UniProt Q8NHM5 1-1336) MAGPQMGGSAEDHPPRKRHAAEKQKKKTVIYTKCFEFESATQRPIDRQRYDENEDLSDVEEIVSVRGFSLEEKLRSQLYQGDFVHAMEGKDFNYEYVQREALRVPLIFREKDGLGIKMPDPDFTVRDVKLLVGSRRLVDVMDVNTQKGTEMSMSQFVRYYETPEAQRDKLYNVISLEFSHTKLEHLVKRPTVVDLVDWVDNMWPQHLKEKQTEATNAIAEMKYPKVKKYCLMSVKGCFTDFHIDFGGTSVWYHVFRGGKIFWLIPPTLHNLALYEEWVLSGKQSDIFLGDRVERCQRIELKQGYTFFIPSGWIHAVYTPVDSLVFGGNILHSFNVPMQLRIYEIEDRTRVQPKFRYPFYYEMCWYVLERYVYCVTQRSHLTQEYQRESMLIDAPRKPSIDGFSSDSWLEMEEEACDQQPQEEEEKDEEGEGRDRAPKPPTDGSTSPTSTPSEDQEALGKKPKAPALRFLKRTLSNESEESVKSTTLAVDYPKTPTGSPATEVSAKWTHLTEFELKGLKALVEKLESLPENKKCVPEGIEDPQALLEGVKNVLKEHADDDPSLAITGVPVVTWPKKTPKNRAVGRPKGKLGPASAVKLAANRTTAGARRRRTRCRKCEACLRTECGECHFCKDMKKFGGPGRMKQSCIMRQCIAPVLPHTAVCLVCGEAGKEDTVEEEEGKFNLMLMECSICNEIIHPGCLKIKESEGVVNDELPNCWECPKCNHAGKTGKQKRGPGFKYASNLPGSLLKEQKMNRDNKEGQEPAKRRSECEEAPRRRSDEHSKKVPPDGLLRRKSDDVHLRKKRKYEKPQELSGRKRASSLQTSPGSSSHLSPRPPLGSSLSPWWRSSLTYFQQQLKPGKEDKLFRKKRRSWKNAEDRMALANKPLRRFKQEPEDELPEAPPKTRESDHSRSSSPTAGPSTEGAEGPEEKKKVKMRRKRRLPNKELSRELSKELNHEIQRTENSLANENQQPIKSEPESEGEEPKRPPGICERPHRFSKGLNGTPRELRHQLGPSLRSPPRVISRPPPSVSPPKCIQMERHVIRPPPISPPPDSLPLDDGAAHVMHREVWMAVFSYLSHQDLCVCMRVCRTWNRWCCDKRLWTRIDLNHCKSITPLMLSGIIRRQPVSLDLSWTNISKKQLSWLINRLPGLRDLVLSGCSWIAVSALCSSSCPLLRTLDVQWVEGLKDAQMRDLLSPPTDNRPGQMDNRSKLRNIVELRLAGLDITDASLRLIIRHMPLLSKLHLSYCNHVTDQSINLLTAVGTTTRDSLTEINLSDCNKVTDQCLSFFKRCGNICHIDLRYCKQVTKEGCEQFIAEMSVSVQFGQVEEKLLQKLS			binds	binds	
